PMC5571287 (Antimicrobial Agents and Chemotherapy, 2017)

Test system: HEp-2 cells

## Cc1ccc(CCCO)c(NCc2ccc3nc(NCCCN4CCOCC4)n(Cc4nc(C)ccc4O)c3c2)c1 [TMC35315]
  CC50: 7.94 µM
